PubChem BioAssay AID1224826 | NIAID – 2016
Here is a random part of about 17,000 reagents. In the full data, about 1,110 (6.6%) are marked active. 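Active means lowered or raised reporter signal; replicate intensities are raw and not normalised per plate.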 A number with no mark means an inactive call. Reagents against one gene are numbered here. Some reagents were tested in more than one well and are listed for each.

Test: 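Knock-downs that raise or lower Tnf reporter signal after endotoxin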 (primary screen)
System: RAW264.7 G9 macrophages from mouse bearing reporters for p65 (GFP) and the Tnf promoter (mCherry)
Knock-down reagent: siRNA pool against mouse genes, 100 nM
Duration: 16 h of LPS stimulation, after 2 days of siRNA transfection
Treatment: bacterial lipopolysaccharide (Salmonella minnesota R595), 10 ng/ml
Measurement: 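Nuclear mCherry signal of the Tnf promoter reporter measured by imaging after background removal, scaled to each plate median and turned into robust z-scores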
Scale: Tnf reporter robust z-score: higher = stronger Tnf promoter reporter signal after LPS; Tnf reporter intensity: higher = stronger Tnf promoter reporter signal
Call rule: 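Called active when robust z-score is at most -1.3, matching the median of the Tlr4 knock-down control, or over 3; control wells and wells with under 50 cells never active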
Calls: active = Tnf reporter clearly lowered or raised; inactive = no clear change in Tnf reporter

gene symbol	reagent	Tnf reporter robust z-score	fewer than 50 cells in well	Tnf reporter intensity, replicate 1	Tnf reporter intensity, replicate 2
Agfg1	1	-0.41	enough cells in well	225	144
Rbm43	1	-0.11	enough cells in well	271	61.1
Gm4894	1	1.23	enough cells in well	247	212
Rgcc	1	0.14	enough cells in well	127	208
Cpne3	1	-0.34	enough cells in well	228	160
Ltap1	1	0	enough cells in well	133	149
Nsmf	1	-1.74 (active)	enough cells in well	118	30
Zfp871	1	1	enough cells in well	213	281
Rhox6	1	2.31	enough cells in well	295	165
Hdac1	1	1.25	enough cells in well	376	233
Chd1l	1	-0.46	enough cells in well	88.8	217
Gpa33	1	1.42	enough cells in well	359	246
Zfp385b	1	-0.92	enough cells in well	167	148
Chaf1a	1	-1.4 (active)	enough cells in well	136	104
Tecr	1	-0.89	enough cells in well	152	129
Dhodh	1	-1.02	enough cells in well	143	144
Or6k14	1	0.65	enough cells in well	96.1	174
Neurl1a	1	-0.79	enough cells in well	175	166
Rsrc1	1	-0.15	enough cells in well	204	86.7
Mre11a	1	-0.96	enough cells in well	205	117
Prnp	1	0.89	enough cells in well	280	285
L1cam	1	-0.82	enough cells in well	172	110
Actb	1	1.01	enough cells in well	222	232
Csn1s2b	1	-0.48	enough cells in well	107	198
Ttc36	1	-0.54	enough cells in well	192	144
Kif11	1	-1.23	enough cells in well	140	88.3
Vmn2r42	1	0.44	enough cells in well	153	89

Reformatted: 3 of the entries above
gene symbol,reagent,Tnf reporter robust z-score,fewer than 50 cells in well,"Tnf reporter intensity, replicate 1","Tnf reporter intensity, replicate 2"
Or6k14,1,0.65,enough cells in well,96.1,174
Neurl1a,1,-0.79,enough cells in well,175,166
Rsrc1,1,-0.15,enough cells in well,204,86.7

Further entries follow.
gene symbol	reagent	Tnf reporter robust z-score	fewer than 50 cells in well	Tnf reporter intensity, replicate 1	Tnf reporter intensity, replicate 2
Gjb3	1	-0.51	enough cells in well	236	173
Hrh1	1	-0.08	enough cells in well	169	359
Cmya5	1	1.96	enough cells in well	241	110
Msh3	1	0.61	enough cells in well	343	227
Dcph1	1		fewer than 50 cells per well; well left out of calls	172	17.4
Alox8	1	0.56	enough cells in well	203	198
Tespa1	1	-0.87	enough cells in well	102	104
Gabrg1	1	0.68	enough cells in well	312	292
Or5ak24	1	-0.19	enough cells in well	152	111
Add3	1	-0.49	enough cells in well	119	166
Allc	1	-0.11	enough cells in well	206	174
9530056K15Rik	1	0.08	enough cells in well	185	193
Oser1	1		fewer than 50 cells per well; well left out of calls	163	33.7
Slc17a8	1		fewer than 50 cells per well; well left out of calls	128	110
Slc30a5	1		fewer than 50 cells per well; well left out of calls	20.9	92.4
Ankle2	1	2.36	enough cells in well	428	150
Grb10	1	-0.92	enough cells in well	189	151
Irf9	1	-0.05	enough cells in well	195	177
Slc43a1	1	-0.07	enough cells in well	214	139
Vwf	1	-0.44	enough cells in well	170	227
Appl1	1		fewer than 50 cells per well; well left out of calls	115	78.2
Appl1	1		fewer than 50 cells per well; well left out of calls	122	31.9
Tmtc2	1	-1.36 (active)	enough cells in well	99.6	100
Tmtc2	2		fewer than 50 cells per well; well left out of calls	76.1	87.7
Rab20	1	-0.43	enough cells in well	296	155
Emc6	1	-0.16	enough cells in well	276	65
Cdc42ep1	1	-0.28	enough cells in well	199	212
Sgsm3	1		fewer than 50 cells per well; well left out of calls	88.5	87.9
Ccl12	1		fewer than 50 cells per well; well left out of calls	202	124
Ccl12	1	0.45	enough cells in well	213	400
Zfp46	1	-1.1	enough cells in well	56.8	78.3
Chl1	1	-0.34	enough cells in well	120	192
Pitpnb	1	0.04	enough cells in well	139	124
Stimate	1		fewer than 50 cells per well; well left out of calls	314	102
Ctsg	1	0.49	enough cells in well	284	226
Birc5	1		fewer than 50 cells per well; well left out of calls	86.3	134
Zbtb7a	1	0.07	enough cells in well	241	228
Arf5	1	1.17	enough cells in well	227	241
Sf3b6	1	-1.52 (active)	enough cells in well	129	37.2
Akp3	1	1.95	enough cells in well	297	261
Cd48	1	0.52	enough cells in well	292	242
Slc13a2	1	1.58	enough cells in well	171	137
R3hdm4	1	0.4	enough cells in well	149	150
Fank1	1	1.06	enough cells in well	317	159
Tspan13	1	-0.19	enough cells in well	119	79
Plaat3	1	-0.55	enough cells in well	233	111
Sf3b1	1		fewer than 50 cells per well; well left out of calls	0	36.8
Tspan14	1	0.16	enough cells in well	191	190
